In article PMC7862700 one finds binding signal data, which are given here for 71 sequences.

Amino acid sequences for entries named in this document (tags omitted). A change or cut given only in a name is not applied to a line headed by its entry.
UniProt P41161: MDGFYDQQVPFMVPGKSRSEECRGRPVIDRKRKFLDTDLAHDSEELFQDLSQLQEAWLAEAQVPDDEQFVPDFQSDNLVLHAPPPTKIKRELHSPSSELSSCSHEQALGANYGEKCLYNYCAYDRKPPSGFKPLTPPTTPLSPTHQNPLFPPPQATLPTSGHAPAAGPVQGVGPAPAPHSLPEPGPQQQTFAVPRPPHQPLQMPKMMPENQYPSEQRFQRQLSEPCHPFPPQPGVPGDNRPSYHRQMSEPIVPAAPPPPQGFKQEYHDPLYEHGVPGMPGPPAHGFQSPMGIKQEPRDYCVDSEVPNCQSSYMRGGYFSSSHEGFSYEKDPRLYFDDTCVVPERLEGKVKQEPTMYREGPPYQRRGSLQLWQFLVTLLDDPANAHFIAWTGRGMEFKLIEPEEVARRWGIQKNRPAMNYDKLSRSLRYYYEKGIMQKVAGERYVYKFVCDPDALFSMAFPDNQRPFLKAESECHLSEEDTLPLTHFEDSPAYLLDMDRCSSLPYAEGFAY
UniProt Q01892: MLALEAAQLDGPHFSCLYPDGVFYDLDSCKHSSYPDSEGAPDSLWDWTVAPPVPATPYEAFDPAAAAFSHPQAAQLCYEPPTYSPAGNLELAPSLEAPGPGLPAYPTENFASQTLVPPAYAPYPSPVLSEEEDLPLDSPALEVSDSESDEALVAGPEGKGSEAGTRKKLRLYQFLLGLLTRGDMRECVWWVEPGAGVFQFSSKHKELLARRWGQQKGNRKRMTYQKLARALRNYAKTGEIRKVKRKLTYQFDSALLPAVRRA
UniProt Q99607: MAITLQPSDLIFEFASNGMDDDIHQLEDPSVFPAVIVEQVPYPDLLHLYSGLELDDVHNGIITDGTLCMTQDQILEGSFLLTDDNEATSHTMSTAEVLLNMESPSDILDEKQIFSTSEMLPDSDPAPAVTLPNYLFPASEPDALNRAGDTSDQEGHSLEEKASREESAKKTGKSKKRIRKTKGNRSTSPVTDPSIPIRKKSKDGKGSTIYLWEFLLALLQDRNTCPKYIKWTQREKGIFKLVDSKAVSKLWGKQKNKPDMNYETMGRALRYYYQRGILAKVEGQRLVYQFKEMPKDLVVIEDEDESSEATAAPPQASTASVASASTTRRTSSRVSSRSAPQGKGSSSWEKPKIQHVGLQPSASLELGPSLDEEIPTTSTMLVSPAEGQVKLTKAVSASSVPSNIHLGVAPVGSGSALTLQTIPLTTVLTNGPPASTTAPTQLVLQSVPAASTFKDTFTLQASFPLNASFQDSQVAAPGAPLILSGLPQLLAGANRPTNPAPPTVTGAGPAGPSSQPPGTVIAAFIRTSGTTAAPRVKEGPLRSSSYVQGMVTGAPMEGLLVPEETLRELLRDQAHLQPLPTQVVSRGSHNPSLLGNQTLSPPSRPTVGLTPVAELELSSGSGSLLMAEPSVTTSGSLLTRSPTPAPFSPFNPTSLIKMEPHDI

This is a selection; strong and weak results do not stand in their true shares. At the low end of the ranking, values are background and their order means little.

Assay in all cases: DAPPL (digital affinity profiling via proximity ligation, sequencing)
Conditions in all cases: 10 mM Tris-HCl pH 7.5, 50 mM NaCl, 1 mM DTT, 4% glycerol, room temperature, 30 min; GST-TFs on glutathione beads, 16-mer random dsDNA library, 0.1% …; high values mean tight binding; double strand, one strand shown; scale: fold enrichment (6-mer frequency, TF over GST control)

Assay [1] addresses ETV5 (UniProt P41161).
For assay [2], the target named is T1, ETV2 (UniProt O00321).
T1 sequence: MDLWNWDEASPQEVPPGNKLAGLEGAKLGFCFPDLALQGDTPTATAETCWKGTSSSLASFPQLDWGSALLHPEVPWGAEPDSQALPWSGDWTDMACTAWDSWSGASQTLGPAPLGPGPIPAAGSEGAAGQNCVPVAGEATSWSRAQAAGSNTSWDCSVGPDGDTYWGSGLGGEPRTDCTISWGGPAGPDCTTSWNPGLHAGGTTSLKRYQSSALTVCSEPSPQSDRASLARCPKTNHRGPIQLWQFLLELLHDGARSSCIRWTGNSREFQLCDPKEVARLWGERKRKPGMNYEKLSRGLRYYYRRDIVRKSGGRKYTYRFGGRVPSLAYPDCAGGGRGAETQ

For assay [3], the target named is SPIB (UniProt Q01892).
Assay [4] has as its target ELF4 (UniProt Q99607).
Assay [5] concerns the target T2, EHF (UniProt Q9NZC4).
T2 sequence: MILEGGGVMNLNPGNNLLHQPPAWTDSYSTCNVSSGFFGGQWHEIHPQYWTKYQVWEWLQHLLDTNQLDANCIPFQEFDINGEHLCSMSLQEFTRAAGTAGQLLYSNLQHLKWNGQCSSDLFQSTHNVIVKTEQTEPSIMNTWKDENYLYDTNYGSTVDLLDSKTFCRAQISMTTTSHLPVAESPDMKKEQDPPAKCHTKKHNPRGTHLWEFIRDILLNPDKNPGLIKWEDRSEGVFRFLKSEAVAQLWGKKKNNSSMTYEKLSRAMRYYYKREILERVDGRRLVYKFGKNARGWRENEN

In assay [6] the target is T3, ETV3L (UniProt Q6ZN32).
T3 sequence: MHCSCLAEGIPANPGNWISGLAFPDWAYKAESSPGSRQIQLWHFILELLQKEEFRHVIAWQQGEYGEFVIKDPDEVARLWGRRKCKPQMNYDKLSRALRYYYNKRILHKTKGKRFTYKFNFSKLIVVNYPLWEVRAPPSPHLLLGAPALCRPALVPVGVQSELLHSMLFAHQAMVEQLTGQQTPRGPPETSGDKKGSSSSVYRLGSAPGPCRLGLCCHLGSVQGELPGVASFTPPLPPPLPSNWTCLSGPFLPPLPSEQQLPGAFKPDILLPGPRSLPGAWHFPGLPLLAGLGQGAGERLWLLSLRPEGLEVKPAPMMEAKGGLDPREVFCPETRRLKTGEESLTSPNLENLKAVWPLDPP

On to TGTTTA, for which the binding signal in assay [1] is 1.19; in assay [2], 1.04.
Consider CGTTAT, for which the binding signal turned out to be 1.15 in assay [1] and 1.21 in assay [2].
In the same order, the values of GCTTCT are 1.57 and 1.46.
Taken in the same sequence, the figures for CGAACT were 1.19 and 0.996.
Take AGTAAT: the binding signal in assay [1] was found to be 1.12; in assay [2], 1.24.
Taken in the same sequence, the figures for GAATAT were 1.07 and 0.97.
On to CTTCGA, for which the binding signal in assay [3] worked out at 1.31; in assay [1], 1.4; in assay [4], 1.4.
As to TGGCTG, the binding signal in assay [5] stood at 1.23; in assay [3] it was 1.01; in assay [1] it was 1.08; in assay [4], 0.971.
For the sequence CTTTGT, the binding signal in assay [1] was 1.3; in assay [2], 1.03.
In the same order, the values of TCAGCT are 0.981 and 1.11.
Taken in the same sequence, the figures for CCTTAT were 1.41 and 1.39.
In the case of TATGTG, the binding signal in assay [3] stood at 1.05; in assay [1] it was 1.13; in assay [4], 1.13.
On to CATTTT, for which the binding signal in assay [1] stood at 1.23; in assay [2], 1.35.
For ATCGTT, the binding signal in assay [5] was determined as 1; in assay [3], 0.994; in assay [1], 1; in assay [4], 1.04.
As for CTATTA, the binding signal in assay [5] was 1.12; in assay [1], 1.14; in assay [4], 1.14.
In the case of ACGTAT, the binding signal in assay [5] came out at 1.29; in assay [1] it was 1.2; in assay [4] it was 1.27.
Taken in the same sequence, the figures for CTACGC were 1.56, 1.6 and 1.51.
On to TGACCA, for which the binding signal in assay [1] worked out at 1.23; in assay [2], 1.17.
Taken in the same sequence, the figures for TTCGCG were 1.04 and 1.2.
In the case of CCTGGC, the binding signal in assay [5] was determined as 1.04; in assay [1] it was 0.933; in assay [4], 0.901.
With ATAACC, the binding signal turned out to be 1.21 in assay [1] and 1.05 in assay [2].
In the same order, the values of ATAGGT are 1.08 and 1.11.
GACATT: the figures for the binding signal in assay [3], in assay [1] and in assay [4] were 1.16, 1.17 and 1.14, respectively.
With GGGCTC, the binding signal in assay [1] came to 1.18; in assay [2] it was 0.912.
For the sequence AGCTAG, the binding signal in assay [3] was 0.997; in assay [1], 0.971; in assay [4] it was 1.05.
With AAAGTT, the binding signal in assay [1] worked out at 1.16; in assay [2], 0.991.
Taken in the same sequence, the figures for CGCACT were 1.28 and 1.29.
Turning to CGCTAA, the binding signal is 0.937 in assay [5], 0.953 in assay [3], 0.892 in assay [1] and 0.943 in assay [4].
In the case of AACTAC, the figures for the binding signal in assay [1] and in assay [2] were 1.38 and 1.42, respectively.
In the same order, the values of CTCGAA are 1.2 and 1.16.
For the sequence TTCTGA, the values for the binding signal in assay [3], in assay [1] and in assay [4] were 1.32, 1.23 and 1.45, respectively.
In the case of ACTACG, the figures for the binding signal in assay [1] and in assay [2] were 1.27 and 1.33, respectively.
On to TCGACG, for which the binding signal was 1.17 in assay [1] and 1.18 in assay [2].
Consider GTTCAA, for which the binding signal in assay [1] worked out at 1.14; in assay [2], 1.05.
In the same order, the values of TAGATG are 1.22 and 1.37.
Consider AAACTG, for which the figures for the binding signal in assay [3], in assay [1] and in assay [4] were 1.1, 1.09 and 1.1, respectively.
Take TTGACT: the binding signal in assay [1] worked out at 1.13; in assay [2], 1.27.
As to CAATTC, the values for the binding signal in assay [1] and in assay [2] were 1.37 and 1.39, respectively.
Taken in the same sequence, the figures for GAAACT were 1.28 and 1.12.
Turning to ACCAAA, the binding signal in assay [1] came out at 1.03; in assay [2], 1.14; in assay [6], 0.991.
For TAGAAA, the binding signal in assay [1] was found to be 1.03; in assay [2], 0.989.
As for GCTTCC, the binding signal in assay [1] worked out at 3.97; in assay [2] it was 3.44.
AAACGA: the results for the binding signal in assay [1], in assay [2] and in assay [6] were 1.1, 1.1 and 0.994, respectively.
With CTTACA, the binding signal in assay [1] turned out to be 1.31; in assay [2], 1.28; in assay [6], 1.26.
Taken in the same sequence, the figures for TGGTCA were 1.02, 0.888 and 1.1.
Taken in the same sequence, the figures for CCCTTA were 1.28, 1.41 and 1.41.
TGCTCG: the figures for the binding signal in assay [1] and in assay [2] were 1.31 and 1.21, respectively.
Taken in the same sequence, the figures for TCCGTC were 1.31 and 1.35.
As for AAAGCA, the binding signal in assay [1] came to 1.06; in assay [2], 1.11.
Turning to TATGTT, the results for the binding signal in assay [1], in assay [2] and in assay [6] were 1.15, 1.08 and 1.2, respectively.
Taken in the same sequence, the figures for TCCATA were 1.3, 1.19 and 1.27.
With ATTCAA, the binding signal in assay [1] is 1.32; in assay [2], 1.38.
Taken in the same sequence, the figures for CACTAT were 1.2 and 1.09.
TATAAT: the binding signal in assay [1] turned out to be 1.17; in assay [2], 1.3.
Taken in the same sequence, the figures for AAATAC were 1.43 and 1.51.
Consider AAGGTT, for which the results for the binding signal in assay [1], in assay [2] and in assay [6] were 1.01, 0.894 and 0.993, respectively.
For GGTAAC, the binding signal in assay [1] is 0.968; in assay [2], 0.974.
Regarding TTCATG, the binding signal in assay [1] turned out to be 1.27; in assay [2] it was 1.26; in assay [6] it was 1.33.
For AACTGG, the results for the binding signal in assay [1] and in assay [2] were 1.21 and 1.31, respectively.
Turning to ATTTGC, the binding signal came to 1.4 in assay [1], 1.23 in assay [2] and 1.26 in assay [6].
Take TTTAAC: the binding signal was 1.12 in assay [1] and 1.24 in assay [2].
In the same order, the values of CATTGT are 1.19 and 1.11.
Consider CTCCAT, for which the binding signal in assay [1] worked out at 1.43; in assay [2], 1.46.
In the same order, the values of CTGATT are 1.25 and 1.21.
Taken in the same sequence, the figures for GAATTG were 1.18 and 0.897.
For the sequence CAAGCA, the results for the binding signal in assay [1], in assay [2] and in assay [6] were 1.17, 0.997 and 1.17, respectively.
Regarding CTATGC, the binding signal in assay [1] stood at 1.38; in assay [2], 1.55.
In the same order, the values of AACTTT are 1.19 and 1.3.
As to TTGCCA, the binding signal was 0.987 in assay [1], 0.992 in assay [2] and 1 in assay [6].
In the same order, the values of TGGTTG are 0.96, 0.879 and 1.03.
Taken in the same sequence, the figures for AACTCA were 1.25, 1.22 and 1.18.
